Each structure is given as a SMILES string. This is one part of the list. Repeats are few or missing, and single values can be far off.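 The apoptosis fraction was the count of cleaved-PARP antibody-stained nuclei relative to all DNA-stained nuclei, imaged in 1,536-well plates. Screening doses were set so most cells survived, and baseline and induced cleaved-PARP levels vary greatly across cell lines.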

The first experiment deals with LB2518-MEL. Nature of the experiment: cleaved PARP positive nuclei fraction relative to DMSO control; melanoma cells; higher = more apoptosis. The conditions noted are these: library dose: low library concentration; 72 h.
Turning to `Cn1cnc2c(F)c(Nc3ccc(Br)cc3Cl)c(C(=O)NOCCO)cc21` [selumetinib] + COc1ccc(COc2ccc(Cc3cnc(N)nc3N)cc2OC)cc1 [GW2580] (first compound 0.015 µM, partner dose 1 µM), the “cleaved PARP positive nuclei fraction” value amounted to 113%.

Turning to `C[C@]1(O)C[C@@H](c2nc(-c3ccc4ccc(-c5ccccc5)nc4c3)c3c(N)nccn32)C1` + O=C(O)C(=O)Nc1sc2c(c1C(=O)O)CCNC2 [TCS401] (first compound 0.4 µM, partner dose 1.66667 µM), the “cleaved PARP positive nuclei fraction” value was determined as 45.3%.

Take `CCN(CC)CCNC(=O)c1c(C)[nH]c(/C=C2\C(=O)Nc3ccc(F)cc32)c1C` [sunitinib] + c1cc(-c2cnn3cc(-c4ccc(OCCN5CCCCC5)cc4)cnc23)ccn1 [Dorsomorphin] (first compound 0.4 µM, partner dose 0.4 µM): the “cleaved PARP positive nuclei fraction” value amounted to 84.7%.

As for `CC1(C)CCC(c2ccc(Cl)cc2)=C(CN2CCN(c3ccc(C(=O)NS(=O)(=O)c4ccc(N[C@H](CCN5CCOCC5)CSc5ccccc5)c(S(=O)(=O)C(F)(F)F)c4)cc3)CC2)C1` + COc1cc(N2CCC(N3CCN(C)CC3)CC2)ccc1Nc1ncc(Cl)c(Nc2ccccc2S(=O)(=O)C(C)C)n1 [NVP-TAE684] (first compound 0.4 µM, partner dose 0.08 µM), the “cleaved PARP positive nuclei fraction” value was determined as 234%.

Turning to `Cn1sc(=O)n(Cc2ccccc2)c1=O` + CCN(CC)CCCCNc1ncc2cc(-c3cc(OC)cc(OC)c3)c(NC(=O)NC(C)(C)C)nc2n1 [PD173074] (first compound 0.4 µM, partner dose 0.1 µM), the “cleaved PARP positive nuclei fraction” value came out at 61%.

On to `CCN(CC)CCNC(=O)c1c(C)[nH]c(/C=C2\C(=O)Nc3ccc(F)cc32)c1C` [sunitinib] + CCCCCCCCCCCC1=C(O)C(=O)C=C(O)C1=O [Embelin] (first compound 0.4 µM, partner dose 1.2 µM), for which the “cleaved PARP positive nuclei fraction” value came out at 29.3%.

Consider `CN(c1ncccc1CNc1nc(Nc2ccc3c(c2)CC(=O)N3)ncc1C(F)(F)F)S(C)(=O)=O` + COc1ccc(-c2ccc3c(N4CCOCC4)nc(N4C[C@@H](C)O[C@@H](C)C4)nc3n2)cc1CO [KU0063794] (first compound 0.08 µM, partner dose 0.02 µM), for which the “cleaved PARP positive nuclei fraction” value came to 80.6%.

Take `CCN(CC)CCNC(=O)c1c(C)[nH]c(/C=C2\C(=O)Nc3ccc(F)cc32)c1C` [sunitinib] + CCN(CC)CCCCNc1ncc2cc(-c3cc(OC)cc(OC)c3)c(NC(=O)NC(C)(C)C)nc2n1 [PD173074] (first compound 0.4 µM, partner dose 0.1 µM): the “cleaved PARP positive nuclei fraction” value came out at 92%.

Consider `Cn1cnc2c(F)c(Nc3ccc(Br)cc3Cl)c(C(=O)NOCCO)cc21` [selumetinib] + O=C(Nc1ccccc1)c1cc([N+](=O)[O-])ccc1Cl [GW9662] (first compound 0.015 µM, partner dose 2 µM), for which the “cleaved PARP positive nuclei fraction” value stood at 254%.

As for `C[C@@H](N)c1ccc(C(=O)Nc2ccnc3[nH]ccc23)cc1` + COc1ccc2c(c1)CCC1C2CCC2(C)C(NCCCCCCN3C(=O)C=CC3=O)CCC12 [U73122] (first compound 0.4 µM, partner dose 0.4 µM), the “cleaved PARP positive nuclei fraction” value was 121%.

Regarding `CC(=O)O[C@@]12CO[C@@H]1C[C@H](O)[C@@]1(C)C(=O)[C@H](O)C3=C(C)[C@@H](OC(=O)[C@H](O)[C@@H](NC(=O)OC(C)(C)C)c4ccccc4)C[C@@](O)([C@@H](OC(=O)c4ccccc4)[C@H]21)C3(C)C` [Docetaxel] + COc1ccc(-c2ccc3c(N4CCOCC4)nc(N4C[C@@H](C)O[C@@H](C)C4)nc3n2)cc1CO [KU0063794] (first compound 0.0001 µM, partner dose 0.02 µM), the “cleaved PARP positive nuclei fraction” value amounted to 126%.

On to `CS(=O)(=O)c1ccc(C(=O)Nc2ccc(Cl)c(-c3ccccn3)c2)c(Cl)c1` [vismodegib] + COc1cc(N2CCC(N3CCN(C)CC3)CC2)ccc1Nc1ncc(Cl)c(Nc2ccccc2S(=O)(=O)C(C)C)n1 [NVP-TAE684] (first compound 1 µM, partner dose 0.08 µM), for which the “cleaved PARP positive nuclei fraction” value was found to be 77.2%.

Turning to `NC(=O)c1ccc(N(C(N)=O)c2c(F)cccc2F)nc1-c1ccc(F)cc1F` + O=C(O)C(=O)Nc1sc2c(c1C(=O)O)CCNC2 [TCS401] (first compound 0.4 µM, partner dose 1.66667 µM), the “cleaved PARP positive nuclei fraction” value is 70%.

`CCN(CC)CCNC(=O)c1c(C)[nH]c(/C=C2\C(=O)Nc3ccc(F)cc32)c1C` [sunitinib] + CC(C)CCN1c2nc(Nc3cc(F)c(O)c(F)c3)ncc2N(C)C(=O)C1C [BID1870] (first compound 0.4 µM, partner dose 0.2 µM): the “cleaved PARP positive nuclei fraction” value worked out at 61.7%.

Another experiment has as its system LOXIMVI. The description is as above. Conditions: library dose: low library concentration; 72 h.
For the compound `NC1(c2ccc(-c3nc4ccn5c(=O)[nH]nc5c4cc3-c3ccccc3)cc2)CCC1` + Cc1cc([N+](=O)[O-])ccc1NS(=O)(=O)c1cc(Cl)ccc1Cl [FH535] (first compound 0.4 µM, partner dose 1 µM), the “cleaved PARP positive nuclei fraction” value was 232%.

For the compound `NC1(c2ccc(-c3nc4ccn5c(=O)[nH]nc5c4cc3-c3ccccc3)cc2)CCC1` + O=S(=O)(c1ccccc1)N(CC(F)(F)F)c1ccc(C(O)(C(F)(F)F)C(F)(F)F)cc1 [T0901317] (first compound 0.4 µM, partner dose 1.4 µM), the “cleaved PARP positive nuclei fraction” value was found to be 104%.

Turning to `CS(=O)(=O)c1ccc(C(=O)Nc2ccc(Cl)c(-c3ccccn3)c2)c(Cl)c1` [vismodegib] + Oc1cc(-c2nc(-c3ccccc3)[nH]c2-c2ccncc2)ccc1Cl [L779450] (first compound 1 µM, partner dose 0.2 µM), the “cleaved PARP positive nuclei fraction” value was determined as 97.7%.

Regarding `C[C@]1(O)C[C@@H](c2nc(-c3ccc4ccc(-c5ccccc5)nc4c3)c3c(N)nccn32)C1` + CC(C)CCN1c2nc(Nc3cc(F)c(O)c(F)c3)ncc2N(C)C(=O)C1C [BID1870] (first compound 0.4 µM, partner dose 0.2 µM), the “cleaved PARP positive nuclei fraction” value was determined as 57.9%.

For `Cn1cnc2c(F)c(Nc3ccc(Br)cc3Cl)c(C(=O)NOCCO)cc21` [selumetinib] + CC(C)CCN1c2nc(Nc3cc(F)c(O)c(F)c3)ncc2N(C)C(=O)C1C [BID1870] (first compound 0.015 µM, partner dose 0.2 µM), the “cleaved PARP positive nuclei fraction” value turned out to be 74.5%.

As to `C[C@]1(O)C[C@@H](c2nc(-c3ccc4ccc(-c5ccccc5)nc4c3)c3c(N)nccn32)C1` + CCN(CC)CCCCNc1ncc2cc(-c3cc(OC)cc(OC)c3)c(NC(=O)NC(C)(C)C)nc2n1 [PD173074] (first compound 0.4 µM, partner dose 0.1 µM), the “cleaved PARP positive nuclei fraction” value came out at 53.7%.

Consider `CCCCCCCCc1ccc(CCC(N)(CO)CO)cc1` [fingolimod] + Cn1cc(/C=C2\C(=O)Nc3cccnc32)c2ccccc21 [GW441756] (first compound 2 µM, partner dose 0.4 µM), for which the “cleaved PARP positive nuclei fraction” value came to 60.1%.

For the compound `CS(=O)(=O)c1ccc(C(=O)Nc2ccc(Cl)c(-c3ccccn3)c2)c(Cl)c1` [vismodegib] + COc1ccc(COc2ccc(Cc3cnc(N)nc3N)cc2OC)cc1 [GW2580] (first compound 1 µM, partner dose 1 µM), the “cleaved PARP positive nuclei fraction” value is 47.6%.

As for `CC(=O)O[C@@]12CO[C@@H]1C[C@H](O)[C@@]1(C)C(=O)[C@H](O)C3=C(C)[C@@H](OC(=O)[C@H](O)[C@@H](NC(=O)OC(C)(C)C)c4ccccc4)C[C@@](O)([C@@H](OC(=O)c4ccccc4)[C@H]21)C3(C)C` [Docetaxel] + c1cc(-c2cnn3cc(-c4ccc(OCCN5CCCCC5)cc4)cnc23)ccn1 [Dorsomorphin] (first compound 0.0001 µM, partner dose 0.4 µM), the “cleaved PARP positive nuclei fraction” value came to 35%.

For `CS(=O)(=O)c1ccc(C(=O)Nc2ccc(Cl)c(-c3ccccn3)c2)c(Cl)c1` [vismodegib] + O=C(Nc1ccccc1)c1cc([N+](=O)[O-])ccc1Cl [GW9662] (first compound 1 µM, partner dose 2 µM), the “cleaved PARP positive nuclei fraction” value worked out at 170%.

For the compound `NC(=O)c1ccc(N(C(N)=O)c2c(F)cccc2F)nc1-c1ccc(F)cc1F` + COc1ccc(-c2ccc3c(N4CCOCC4)nc(N4C[C@@H](C)O[C@@H](C)C4)nc3n2)cc1CO [KU0063794] (first compound 0.4 µM, partner dose 0.02 µM), the “cleaved PARP positive nuclei fraction” value was 74.6%.

Turning to `CN(c1ncccc1CNc1nc(Nc2ccc3c(c2)CC(=O)N3)ncc1C(F)(F)F)S(C)(=O)=O` + Oc1nc(-c2ccc(C(F)(F)F)cc2)nc2c1CSCC2 [XAV939] (first compound 0.08 µM, partner dose 2 µM), the “cleaved PARP positive nuclei fraction” value was determined as 51.1%.

As for `CS(=O)(=O)c1ccc(C(=O)Nc2ccc(Cl)c(-c3ccccn3)c2)c(Cl)c1` [vismodegib] + COC(=O)c1sccc1S(=O)(=O)Nc1ccc(Nc2ccccc2)cc1OC [GSK0660] (first compound 1 µM, partner dose 1 µM), the “cleaved PARP positive nuclei fraction” value amounted to 33.5%.

In the case of `Cn1sc(=O)n(Cc2ccccc2)c1=O` + O=C(O)C(=O)Nc1sc2c(c1C(=O)O)CCNC2 [TCS401] (first compound 0.4 µM, partner dose 1.66667 µM), the “cleaved PARP positive nuclei fraction” value amounted to 93.3%.

Regarding `Cn1cnc2c(F)c(Nc3ccc(Br)cc3Cl)c(C(=O)NOCCO)cc21` [selumetinib] + N#Cc1c(O)c2c(-c3ccc(-c4ccccc4O)cc3)csc2[nH]c1=O [A769662] (first compound 0.015 µM, partner dose 2 µM), the “cleaved PARP positive nuclei fraction” value came to 125%.

`CCN(CC)CCNC(=O)c1c(C)[nH]c(/C=C2\C(=O)Nc3ccc(F)cc32)c1C` [sunitinib] + N#Cc1c(O)c2c(-c3ccc(-c4ccccc4O)cc3)csc2[nH]c1=O [A769662] (first compound 0.4 µM, partner dose 2 µM): the “cleaved PARP positive nuclei fraction” value was 133%.

The values above are taken from the supplement of paper PMC4604168 (melanoma cell lines).
